Laboratory results from publication doi:10.1101/2020.01.04.893909 (bioRxiv, 2020).
No constants are given. Whether binding was seen depends on the method and setting.

Target: S. pombe homologue of GAP (Rna1), recombinant (S. pombe) (UniProt P41391)
Assay: SEC

- binding: no binding
B1: S. pombe homologue of GAP (Rna1), recombinant (protein, UniProt P41391 1-386)
chain: MSRFSIEGKSLKLDAITTEDEKSVFAVLLEDDSVKEIVLSGNTIGTEAARWLSENIASKKDLEIAEFSDIFTGRVKDEIPEALRLLLQALLKCPKLHTVRLSDNAFGPTAQEPLIDFLSKHTPLEHLYLHNNGLGPQAGAKIARALQELAVNKKAKNAPPLRSIICGRNRLENGSMKEWAKTFQSHRLLHTVKMVQNGIRPEGIEHLLLEGLAYCQELKVLDLQDNTFTHLGSSALAIALKSWPNLRELGLNDCLLSARGAAAVVDAFSKLENIGLQTLRLQYNEIELDAVRTLKTVIDEKMPDLLFLELNGNRFSEEDDVVDEIREVFSTRGRGELDELDDMEELTDEEEEDEEEEAESQSPEPETSEEEKEDKELADELSKAHI
